# No constants are given. Whether binding was seen depends on the method and setting. Some binding calls cover weakened binding; strength is not graded here.
# B1: ICSM18 anti-PrP antibody (D-Gen Ltd, product code 0130-01810), biotinylated (antibody, V domains shown)
# VH: EVQLQQSGPELVKPGSSVKISCKASRNTFTDYNLDWVKQSHGKTLEWIGNVYPNNGVTGYNQKFRGKATLTVDKSSSTAYMELHSLTSEDSAVYYCALYYYDVSYWGQGTLVTVSA
# VL: QIVLTQSPAIMSASPGEKVTMTCSASSSVSYMHWYQQKSGTSPKRWIYDTSKLASGVPARFSGSGSGTSYSLTISSMEAEDAATYFCHQWRSNPYTFGGGTKLEIKR
# Biological target: abnormal human PrP (disease associated PrP, including PrPSc) from vCJD brain homogenate, blood or ur (human) (UniProt P04156)
# Test: Immunodetection on steel powder, chemiluminescence, FIG. 1
binder,measurement,value
B1,binding,binds

# Source: patent US20160320413A1 (D GEN, published 2016)
